Measurements taken from paper PMC10287693.

Target: T1, human Tspan-8·mScarlet (in INS-1 cells) (human) (UniProt P19075)
T1 sequence: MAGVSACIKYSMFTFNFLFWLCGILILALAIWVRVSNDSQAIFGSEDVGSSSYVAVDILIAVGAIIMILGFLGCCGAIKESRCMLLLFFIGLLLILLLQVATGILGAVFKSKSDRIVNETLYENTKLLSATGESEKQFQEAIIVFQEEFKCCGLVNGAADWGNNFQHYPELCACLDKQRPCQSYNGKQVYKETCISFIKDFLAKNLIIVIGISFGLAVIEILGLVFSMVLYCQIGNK
Assay: co-IP; RFP immunoprecipitation from lysates of INS-1 cells over expressing hTspan-8·mScarlet; western blot; WT INS-1 cells as control

With “syntaxin-1 (endogenous in INS-1 cells) (rat (endogenous in INS-1))” the binding was “binds”.

These are yes or no findings as the source states them, for the method shown. Binding seen in cells or lysates may run through a third protein. A result given as binding can be weak or reduced; the word gives no strength.
